Data published in PMC4760400.
These are yes or no findings as the source states them, for the method shown. In cells and extracts the contact can be indirect. Some results given as binding are weak or reduced against the parent protein; the word gives no strength.

The chains behind the UniProt entries cited, without tags or fusion partners.
UniProt Q62976: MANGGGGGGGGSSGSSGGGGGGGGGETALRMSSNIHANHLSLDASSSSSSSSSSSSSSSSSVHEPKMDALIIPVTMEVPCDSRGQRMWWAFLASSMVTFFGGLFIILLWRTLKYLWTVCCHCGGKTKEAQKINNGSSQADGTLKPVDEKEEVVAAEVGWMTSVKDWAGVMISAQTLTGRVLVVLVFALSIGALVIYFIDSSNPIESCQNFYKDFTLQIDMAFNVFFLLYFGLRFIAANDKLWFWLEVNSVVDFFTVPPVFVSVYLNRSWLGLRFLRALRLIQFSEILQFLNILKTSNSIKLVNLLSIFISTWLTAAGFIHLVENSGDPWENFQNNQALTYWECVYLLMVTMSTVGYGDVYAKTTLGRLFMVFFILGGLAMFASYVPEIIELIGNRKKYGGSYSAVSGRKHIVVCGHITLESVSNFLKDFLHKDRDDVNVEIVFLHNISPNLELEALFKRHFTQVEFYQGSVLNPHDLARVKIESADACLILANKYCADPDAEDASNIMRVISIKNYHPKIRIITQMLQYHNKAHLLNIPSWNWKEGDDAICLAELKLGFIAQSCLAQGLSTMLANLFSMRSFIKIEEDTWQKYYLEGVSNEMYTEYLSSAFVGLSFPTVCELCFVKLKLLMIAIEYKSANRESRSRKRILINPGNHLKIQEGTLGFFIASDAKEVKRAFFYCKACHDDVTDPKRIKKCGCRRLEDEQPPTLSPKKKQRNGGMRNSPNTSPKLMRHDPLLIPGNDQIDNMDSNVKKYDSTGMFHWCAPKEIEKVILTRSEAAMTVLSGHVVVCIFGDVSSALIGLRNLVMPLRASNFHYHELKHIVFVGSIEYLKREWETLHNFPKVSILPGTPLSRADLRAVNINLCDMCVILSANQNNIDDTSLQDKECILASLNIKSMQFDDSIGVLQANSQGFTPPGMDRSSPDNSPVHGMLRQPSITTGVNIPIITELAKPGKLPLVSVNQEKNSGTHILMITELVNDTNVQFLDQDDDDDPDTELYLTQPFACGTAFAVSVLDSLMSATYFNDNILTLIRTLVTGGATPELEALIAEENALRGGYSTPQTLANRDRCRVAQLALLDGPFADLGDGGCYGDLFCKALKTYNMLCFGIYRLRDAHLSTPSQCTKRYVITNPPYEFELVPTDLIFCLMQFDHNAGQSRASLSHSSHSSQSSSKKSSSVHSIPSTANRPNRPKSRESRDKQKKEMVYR
UniProt Q5M848: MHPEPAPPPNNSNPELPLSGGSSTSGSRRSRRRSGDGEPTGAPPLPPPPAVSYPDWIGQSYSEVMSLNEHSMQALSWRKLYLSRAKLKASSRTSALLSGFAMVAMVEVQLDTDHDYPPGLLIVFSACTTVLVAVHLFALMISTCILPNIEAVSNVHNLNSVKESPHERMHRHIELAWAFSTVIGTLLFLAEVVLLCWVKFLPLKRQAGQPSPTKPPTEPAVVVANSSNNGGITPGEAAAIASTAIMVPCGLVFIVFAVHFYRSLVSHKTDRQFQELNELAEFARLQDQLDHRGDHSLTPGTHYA

Experiments:
[1] = molecular target: large conductance Ca2+-activated potassium channel (BKCa) (rat (endogenous in mesenteric artery smooth muscle)) (UniProt Q62976); assay: proximity ligation; in situ PLA (Duolink) on fixed, permeabilised rat mesenteric artery VSMCs with goat anti-Orai1 and rabbit anti-BKCa antibodies (1:40 each); control with anti-Orai1 alone; detects proteins within <40 nm
[2] = molecular target: large conductance Ca2+-activated potassium channel (BKCa) (rat (endogenous in mesenteric artery smooth muscle)) (UniProt Q62976); assay: co-IP; lysate of smooth muscle layer of rat mesenteric artery (1% Nonidet P-40, 150 mmol/L NaCl, 20 mmol/L Tris-HCl pH 8.0); 800 ug protein with 3 ug anti-Orai1 or anti-BKCa antibody overnight at 4°C, protein A agarose; immunoblot; preimmune IgG as control
[3] = molecular target: Orai1 (rat (endogenous in mesenteric artery smooth muscle)) (UniProt Q5M848); assay: as above

Substance	binding [1]	binding [2]	binding [3]
Orai1 (from UniProt Q5M848 1-304)	binds	binds	
large conductance Ca2+-activated potassium channel (BKCa) (from UniProt Q62976 1-1209)			binds
